Laboratory results: PubChem BioAssay AID1259254 (NCATS, 2017)
In all, the deposit lists about 59,000 reagents; below is an unselected part. About 1,550 of all reagents (2.6%) count as active. 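G2 share is only a proxy for re-replication; each gene was hit by three separate siRNAs, and active genes were retested.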 The numbers tell different reagents against one gene apart. Further read-outs or replicates are left out here. Not given: the amount of reagent.

- Purpose: 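Gene knock-downs that lead to re-replication, shown by excess G2 DNA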 (primary screen)
- System: human HCT116 colorectal cancer cells
- Reagent: single siRNA against human genes
- Time to read-out: 3 days
- Measured: 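Nuclei stained with Hoechst and imaged; cell-cycle phase assigned by DNA content; G2 share scaled per plate, non-targeting siRNA 0%, GMNN siRNA 100%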
- Direction: G2 robust z-score: higher = more G2 cells, more excess DNA replication
- Call rule: 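Active siRNAs have a G2 robust z of 5 or more median absolute deviations over the median, which in these data means about 38% or higher of GMNN control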

G2 robust z-score, by gene and reagent
CCDC112 (GeneID 153733): #1 1.8 inactive; #2 0.752 inactive; #3 -0.25 inactive
MYL6 (GeneID 4637): #1 0.0886 inactive; #2 0.628 inactive; #3 1.18 inactive
CNFN (GeneID 84518): #1 0.783 inactive; #2 -0.988 inactive; #3 1.93 inactive
GREB1 (GeneID 9687): #1 -0.566 inactive; #2 1.64 inactive; #3 -0.976 inactive
PIK3CD (GeneID 5293): #1 -0.555 inactive; #2 -0.436 inactive; #3 -0.211 inactive

In a second layout: 2 of the entries above
| gene | reagent no. | G2 robust z-score | call |
| --- | --- | --- | --- |
| CNFN (GeneID 84518) | 3 | 1.93 | inactive |
| GREB1 (GeneID 9687) | 1 | -0.566 | inactive |

Next entries:
G2 robust z-score, by gene and reagent
MS4A15 (GeneID 219995): #1 4.26 inactive; #2 2.77 inactive; #3 -1.04 inactive
MPV17L (GeneID 255027): #1 0.3 inactive; #2 -0.433 inactive; #3 0.781 inactive
METTL15P3 (GeneID 729650): #1 -0.767 inactive; #2 -0.771 inactive; #3 -0.568 inactive
STARD10 (GeneID 10809): #1 -1.37 inactive; #2 1.54 inactive; #3 1.65 inactive
HMGN2P24 (GeneID 729505): #1 0.65 inactive; #2 0.363 inactive; #3 -0.652 inactive
